From article PMC12040169 (PLOS Biology, 2025)
This is one part of the list.

tested on: T1, CTL2-GFP (C. trachomatis L2/434/Bu, GFP-expressing); parameters: species or system HeLa; Intracellular C. trachomatis growth in HeLa cells, bulk GFP fluorescence relative to DMSO; conditions: bulk GFP, single well; 28.5 h, 10 µM; inhibitor
T1 construct: L2/434/Bu, GFP-expressing

SMILES | % of control remaining
Cc1csc(C(Cc2ccsc2)NC(=O)c2ccnn2C)n1 (stereo not drawn) [CBK285107] | 86.5667%
O=C(NC(c1ccc(Cl)cc1)c1cccnc1)C1CCN(C(=O)c2ccco2)CC1 (stereo not drawn) [CBK059708] | 98.6334%
CCC#CC(=O)Nc1ccccc1N1CCCNCC1 [CBK024291T] | 96.9792%
COc1cncc(-c2cc(Nc3ccc(NS(=O)(=O)c4ccc(C)cc4)cc3)ncn2)c1 [CBK090988] | 237.549%
CCn1c(-c2ccc(C)cc2)cnc1SCC(=O)N1CCN(C(C)=O)CC1 [CBK296925] | 127.661%
CC(NC(=O)C1CCN(C2Cc3ccccc3C2)CC1)c1ccccc1 (stereo not drawn) [CBK148031] | 169.656%
O=C(c1ccncc1)N1CCN(S(=O)(=O)c2ccccc2[N+](=O)[O-])CC1 [CBK264196] | 96.7912%
CC1CCCC(C)N1C(=O)Cn1ncn2c(cc3ccsc32)c1=O (stereo not drawn) [CBK284191] | 85.9548%
CC(=O)c1c(C)nc2nc(-c3ccncc3)nn2c1C [CBK288552] | 101.192%
O=C(NNC(=O)c1cccnc1)c1ccc(NC(=O)c2ccco2)cc1 [CBK266792] | 100.624%
CCOC(=O)N1CCN(C(=O)Nc2ccc3oc(=O)n(C)c3c2)CC1 [CBK306250] | 130.32%
N#CCCN(Cc1ccco1)C(=O)c1ccc(OCC2CC2)cc1 [CBK304051] | 121.46%
CC(NC(=O)c1ccc(-c2ccccc2F)s1)C(=O)N1CCCCC1 (stereo not drawn) [CBK305740] | 87.8074%
COc1cccc(CN2CCc3cc(OC)c(OC)cc3C2)c1 [CBK126441] | 101.153%
Sc1nncn1NCc1cc(Cl)ccc1OCc1ccccc1 [CBK265752] | 121.86%
Cc1ccc(S(=O)(=O)N[C@H]2CO[C@H]3[C@@H]2OC[C@H]3O)cc1 [CBK289477] | 107.264%
COc1ccc(NC(=O)c2ccc3ncsc3c2)cc1 [CBK287368] | 95.7493%
Cc1cc(=O)c2ccccc2n1CC(=O)N(C)CC1CCCCO1 (stereo not drawn) [CBK306960] | 180.332%
O=C(O)CCCC(=O)NCc1cccnc1 [CBK261708] | 100%
CC(C)Nc1cncc(Sc2cccc(C(=O)O)c2)n1 [CBK093582] | 106.653%
C=CCOc1ccc(Cl)cc1C(=O)NCc1c(C)n[nH]c1C [CBK282587] | 95.3925%
CN(Cc1ccncc1)C(=O)c1cccc(S(=O)(=O)NCC2CC2)c1 [CBK305365] | 100.23%
Cc1cc(C)n(CCNC(=O)N2CCC(Oc3cccnc3)CC2)n1 [CBK306719] | 117.275%
CN1CCC(N(C)C(=O)NCCc2c[nH]c3ccccc23)C1 (stereo not drawn) [CBK156012] | 112.507%
CC(C)Cn1c(=O)[nH]c2ncc(-c3cccc4cccnc34)nc21 [CBK064400] | 120.706%
CN(C)S(=O)(=O)NC1CC(C)(C)Cc2c1cnn2-c1ccccc1 (stereo not drawn) [CBK307533] | 125.326%

SMILES | % of control remaining
Nc1cc(-c2ccco2)nn(Cc2c(Cl)cccc2Cl)c1=O [CBK282880] | 76.1599%
O=C(Nc1ccccc1N1CCOCC1)c1cccc(OCc2ccccc2)c1 [CBK270011] | 121.102%
COc1cccc(CN2CCCC(NC(=O)c3cn4ccsc4n3)C2)c1 (stereo not drawn) [CBK307204] | 123.1%
O=C(Cc1n[nH]c(=O)[nH]c1=O)N/N=C/c1cccc(Br)c1 [CBK263086] | 100%
O=C(NC(c1ccc(F)cc1)c1cnccn1)C1CCN(C(=O)c2ccco2)CC1 (stereo not drawn) [CBK059956] | 105.396%
Cc1nc(SCCN2C(=O)c3ccccc3S2(=O)=O)c2ccccc2n1 [CBK296958] | 139.092%
O=C(NC(c1ccc(F)cc1)c1ccccn1)C1CCN(C(=O)c2ccno2)CC1 (stereo not drawn) [CBK059705] | 134.681%
O=C1CCC(=O)N1CC(O)Cn1c2ccc(Cl)cc2c2cc(Cl)ccc21 (stereo not drawn) [CBK262222] | 100%
CC1CCCCN1C(=O)C1C2CCC3(CC(=O)c4ccccc4O3)C21 (stereo not drawn) [CBK284960] | 126.176%
CC1CCC2(CC1)NC(=O)N(Cc1coc(-c3ccccc3)n1)C2=O (stereo not drawn) [CBK306196] | 102.381%
Cc1noc(C)c1C(=O)Nc1ccc(S(=O)(=O)NCCc2ccccc2)cc1 [CBK268183] | 97.4867%
Cc1ccccc1-c1ccccc1CC1(C(N)=O)CCN(C(=O)Cc2ccccc2)CC1 [CBK285724] | 98.9437%
COc1ccc(C(=O)Nc2nc(OC)cnc2-c2ccsc2)cc1 [CBK145293] | 160.881%
Cc1ccc2c(c1)CCCN2C(=O)c1cnc2c(c1)c(C)nn2C [CBK305670] | 108.25%
CC1(C)[C@H](Cc2cc(COc3ccccc3)on2)C[C@@H]1NS(C)(=O)=O [CBK289703] | 126.633%
Cc1cc(C)n(CC(=O)N2CCCCC2C(=O)O)n1 (stereo not drawn) [CBK305266] | 81.878%
O=C(COc1ccc(F)cc1)NCc1ccc(-c2csnn2)cc1 [CBK149315] | 112.578%
Cc1ccc2nc(-c3ccc(N4C(Nc5nc(C)cc(C)n5)=NC(=O)CC4C(=O)O)cc3)sc2c1 (stereo not drawn) [CBK266646] | 159.969%
O=C(O)C(=O)N1CCN(C(=O)c2cc3ccccc3[nH]2)CC1 [CBK288433] | 99.5157%
COc1cc(/C=C(\C#N)c2nn(-c3ccccc3)c(N)c2C#N)ccc1Oc1ccc(C(F)(F)F)cc1[N+](=O)[O-] [CBK262484] | 100%
Cc1cccc(-c2noc(C)c2C(=O)NCCn2ccc(C)n2)c1 [CBK282656] | 136.11%
CCN1CCN(CCNC(=O)Nc2ccccc2C)CC1 [CBK267842] | 95.5717%
CCNC(=O)c1cnc(-c2cccc(C(F)(F)F)c2)c(-c2cccc(CO)c2)c1 [CBK037557] | 181.972%
FC(F)(F)c1ccc(OCCNc2ccccc2)nc1 [CBK115828] | 94.9988%
CC(=O)c1ccc(-c2cnc(N)c(NCC(C)C)n2)s1 [CBK063764] | 216.925%

Arranged by heavy-atom count (falling): part of the list above
SMILES | % of control remaining
CC1CCCCN1C(=O)C1C2CCC3(CC(=O)c4ccccc4O3)C21 (stereo not drawn) [CBK284960] | 126.176%
Cc1cccc(-c2noc(C)c2C(=O)NCCn2ccc(C)n2)c1 [CBK282656] | 136.11%
Nc1cc(-c2ccco2)nn(Cc2c(Cl)cccc2Cl)c1=O [CBK282880] | 76.1599%
